# Percent effect of library compounds

The values are deposited in ChEMBL (CHEMBL3988442, “University of Dundee, Small-Polar-MMV Screening Library” (2021)).

Values are the deposited “Percent Effect”, in %. The controls that fix the scale are not given in the record; negative values are as filed. The compounds are a random part of those screened.

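Assay of Toxoplasma gondii numbers, read through their beta-galactosidase reporter with a colour substrate. Tested at 50 µM. The record gives no direction; the compounds picked for IC50 retests had high values, so higher reads as fewer parasites. About 18,000 compounds were tested under these conditions; 0.94% (about 170) showed 50% or more at least once.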

Cn1cncc1CCNC(=O)c1cc(Cl)cn1C gave 4.528%.
Cc1ccc(C(C)NC(=O)Cn2cc(Cl)c(C)n2)cn1 (stereo not drawn) gave 2.648%.
CC1CCN(CCNC(=O)c2ccoc2)CC1 gave -9.133%.
COC(C)(C)c1noc(-c2cccc3c2OCO3)n1 gave 4.131%.
CCN(CCCOC)CC(=O)Nc1cccc(OC)c1 gave -2.356%.
CN(C)S(=O)(=O)c1ccc(I)c(C(=O)N2CCC2)c1 gave 3.053%.
O=C(CNC(=O)NCC1CC1)NCCc1ccccc1 gave 40.4%.
CN(C)[C@H]1CN(C(=O)CN2CCCC2=O)C[C@@H]1C1CC1 gave -17.5%.
COc1ccccc1NC(=O)c1ccc(NC(C)=O)s1 gave 0.3926%.
CCC(C)(NCc1cc(F)ccc1F)C(N)=O (stereo not drawn) gave -22.31%.
NCCCNC(=O)c1ccc(O)cc1 gave 6.062%.
CCn1c(=O)n(CCC(=O)NC(N)=O)c2ccccc21 gave -4.43%.
OC1CCN(Cc2cc(Cl)c3c(c2)OCCO3)CC1 gave -11.57%.
CCCc1nc(C(=O)NCC2(O)CCCNCC2)cs1 (stereo not drawn) gave -1.193%.
CCN(CC)CCNCCCN gave 4.705%.
Cc1nc(N(C)C)cc(N2CCN(S(C)(=O)=O)CC2)n1 gave -1.052%.
N#Cc1cc(CN2CCCC(OCCO)C2)ccc1F (stereo not drawn) gave -2.416%.
CN(CC(=O)Nc1cccc(Cl)c1)C(=O)CC#N gave -3.645%.
NCCc1nc(-c2cccc(Cl)c2)no1 gave 9.845%.
NC1CCCN(CCS(=O)(=O)c2ccc(Br)cc2)C1 (stereo not drawn) gave 1.635%.
NC(CN1CCOCC1)c1ccccc1 (stereo not drawn) gave -7.958%.
CN(C(=O)C(N)CCS(C)(=O)=O)C1CCOCC1 (stereo not drawn) gave 4.926%.
Cc1c[nH]c(=O)c(C#N)c1 gave -6.056%.
c1ccc(N2CCCN(c3ncccn3)CC2)nc1 gave 13.18%.
O=c1[nH]c2ccc(S(=O)(=O)CCO)cc2o1 gave -6.816%.
COc1ccc(C(C)NCCO)c(Br)c1 (stereo not drawn) gave -4.191%.
OCCC1(NCc2cccc(O)c2)CCOCC1 gave -2.008%.
CC1=NOC(CNS(=O)(=O)c2cccc(C)c2)C1 (stereo not drawn) gave 27.08%.
Cc1nc(-c2ncccn2)sc1C(=O)N1CCSCC1 gave 2.999%.
COCC(C)Oc1cc(C)ccc1CN (stereo not drawn) gave 2.056%.
N#CC1CCCN(C(=O)CCc2cccc(F)c2)C1 (stereo not drawn) gave 1.658%.
Cc1ccccc1NC(=O)CCN1CCC(CCO)C1 (stereo not drawn) gave -12.92%.
Cc1c(NCc2ccccc2O)cnn1C gave -2.095%.
CC1CCCCN1CCCNC(=O)c1cc[nH]n1 (stereo not drawn) gave 11.35%.
CC(C)C(N)c1ncc[nH]1 (stereo not drawn) gave -4.879%.
CCc1nc(C)ncc1C(=O)N1CCSCC1 gave -6.582%.
Cc1ccccc1CN1CCCN(CCC(N)=O)CC1 gave 4.028%.
CN(Cc1nccs1)C(=O)C1COc2ccccc2C1 (stereo not drawn) gave 35.23%.
CC1(C(=O)NCc2ccc(Cl)cc2)CCCCC(=O)N1 (stereo not drawn) gave 0.1623%.
CCC(C(=O)Nc1ncc(C)[nH]1)N1CCCC1=O (stereo not drawn) gave -14.56%.
O=C1CCC(=O)N1CCc1ccccc1Cl gave -1.949%.
CCC(N)(CC)CNS(=O)(=O)c1cccnc1 gave 5.965%.
NS(=O)(=O)CC1CCN(Cc2nc(C3CC3)no2)CC1 gave -0.9202%.
O=C(NCc1ccccc1F)N1CC[C@H](CO)[C@H](O)C1 gave -12.51%.
COc1cc(CCN)ccc1F gave -11.36%.
COCC(=O)N1CCC2(CCCNC2)C1 (stereo not drawn) gave 0.4774%.
COc1ccc(Cl)c(CSCC(O)CO)c1 (stereo not drawn) gave -4.328%.
CN(CC1(CO)CC1)c1cc(C2CC(N)C2)nc(N)n1 (stereo not drawn) gave 23.15%.

Once more, the final 4:

* COc1cc(CCN)ccc1F : -11.36%
* COCC(=O)N1CCC2(CCCNC2)C1 (stereo not drawn) : 0.4774%
* COc1ccc(Cl)c(CSCC(O)CO)c1 (stereo not drawn) : -4.328%
* CN(CC1(CO)CC1)c1cc(C2CC(N)C2)nc(N)n1 (stereo not drawn) : 23.15%